From publication PMC10905746
These are yes or no findings as the source states them, for the method shown.

The chains behind the UniProt entries cited, without tags or fusion partners.
UniProt Q13950: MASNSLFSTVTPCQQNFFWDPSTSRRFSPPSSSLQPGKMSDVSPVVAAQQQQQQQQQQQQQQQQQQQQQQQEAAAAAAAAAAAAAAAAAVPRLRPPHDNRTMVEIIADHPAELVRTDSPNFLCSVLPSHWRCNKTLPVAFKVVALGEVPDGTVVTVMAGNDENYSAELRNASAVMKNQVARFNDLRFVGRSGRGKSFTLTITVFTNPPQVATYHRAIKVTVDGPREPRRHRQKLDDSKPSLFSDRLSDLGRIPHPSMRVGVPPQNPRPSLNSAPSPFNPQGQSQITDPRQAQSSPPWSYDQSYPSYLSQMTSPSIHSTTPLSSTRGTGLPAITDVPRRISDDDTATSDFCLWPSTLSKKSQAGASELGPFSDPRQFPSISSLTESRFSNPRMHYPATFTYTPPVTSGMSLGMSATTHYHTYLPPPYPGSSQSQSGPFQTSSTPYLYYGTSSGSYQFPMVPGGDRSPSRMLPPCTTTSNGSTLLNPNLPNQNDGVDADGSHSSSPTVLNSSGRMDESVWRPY

Target: GST-BRD4-C-term (E653-F1362) (human) (UniProt O60885)
Experiment: pull-down; 1 μg GST protein on magnetic glutathione beads with 1-3 μg of His-RUNX2; both purified

## His-RUNX2 (Origene, TP760214) (from UniProt Q13950 1-521)
  binding: no binding (tested: 1-3 μg of His-RUNX2)
